# Measurements published in the supplement of paper PMC12823440, “Inhibitors supercharge kinase turnover through native proteolytic circuits” (Nature, 2025).
# Chains of the proteins cited; added tags and fusions are not shown. Lines headed by an entry give the natural chain unless they say otherwise; changes in a name come on top.
# UniProt P48730: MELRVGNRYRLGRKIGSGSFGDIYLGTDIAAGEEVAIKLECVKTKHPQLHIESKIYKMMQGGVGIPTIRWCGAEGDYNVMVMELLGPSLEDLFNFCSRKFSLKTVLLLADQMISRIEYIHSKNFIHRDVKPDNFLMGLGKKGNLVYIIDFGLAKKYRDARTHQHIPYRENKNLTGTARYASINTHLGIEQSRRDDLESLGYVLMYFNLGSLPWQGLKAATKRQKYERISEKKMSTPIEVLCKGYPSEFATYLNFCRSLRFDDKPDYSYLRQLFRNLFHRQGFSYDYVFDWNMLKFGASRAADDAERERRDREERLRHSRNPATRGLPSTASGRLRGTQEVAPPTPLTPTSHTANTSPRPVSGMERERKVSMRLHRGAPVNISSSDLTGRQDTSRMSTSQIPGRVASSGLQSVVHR
# UniProt Q12851: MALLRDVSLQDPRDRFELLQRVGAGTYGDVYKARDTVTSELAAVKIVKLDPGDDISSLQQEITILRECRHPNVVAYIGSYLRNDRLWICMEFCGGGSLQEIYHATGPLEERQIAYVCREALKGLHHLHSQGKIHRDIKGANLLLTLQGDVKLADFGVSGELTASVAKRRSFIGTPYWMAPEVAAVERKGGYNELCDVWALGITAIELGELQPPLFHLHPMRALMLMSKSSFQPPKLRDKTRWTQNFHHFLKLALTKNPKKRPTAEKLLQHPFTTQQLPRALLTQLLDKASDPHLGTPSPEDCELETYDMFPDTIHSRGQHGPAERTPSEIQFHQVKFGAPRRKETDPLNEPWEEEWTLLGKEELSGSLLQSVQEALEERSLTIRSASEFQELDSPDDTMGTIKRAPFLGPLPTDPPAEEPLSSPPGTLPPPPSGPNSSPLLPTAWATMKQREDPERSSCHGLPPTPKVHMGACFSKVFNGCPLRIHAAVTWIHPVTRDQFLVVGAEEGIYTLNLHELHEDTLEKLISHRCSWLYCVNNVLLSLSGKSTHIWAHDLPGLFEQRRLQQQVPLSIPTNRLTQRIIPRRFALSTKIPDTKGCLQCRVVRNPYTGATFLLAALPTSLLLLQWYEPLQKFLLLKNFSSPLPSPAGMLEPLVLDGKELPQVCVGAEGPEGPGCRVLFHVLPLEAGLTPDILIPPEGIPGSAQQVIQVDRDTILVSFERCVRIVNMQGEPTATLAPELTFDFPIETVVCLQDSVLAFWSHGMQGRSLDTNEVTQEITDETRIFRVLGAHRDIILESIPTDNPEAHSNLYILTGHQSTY
# UniProt P07333, whole entry: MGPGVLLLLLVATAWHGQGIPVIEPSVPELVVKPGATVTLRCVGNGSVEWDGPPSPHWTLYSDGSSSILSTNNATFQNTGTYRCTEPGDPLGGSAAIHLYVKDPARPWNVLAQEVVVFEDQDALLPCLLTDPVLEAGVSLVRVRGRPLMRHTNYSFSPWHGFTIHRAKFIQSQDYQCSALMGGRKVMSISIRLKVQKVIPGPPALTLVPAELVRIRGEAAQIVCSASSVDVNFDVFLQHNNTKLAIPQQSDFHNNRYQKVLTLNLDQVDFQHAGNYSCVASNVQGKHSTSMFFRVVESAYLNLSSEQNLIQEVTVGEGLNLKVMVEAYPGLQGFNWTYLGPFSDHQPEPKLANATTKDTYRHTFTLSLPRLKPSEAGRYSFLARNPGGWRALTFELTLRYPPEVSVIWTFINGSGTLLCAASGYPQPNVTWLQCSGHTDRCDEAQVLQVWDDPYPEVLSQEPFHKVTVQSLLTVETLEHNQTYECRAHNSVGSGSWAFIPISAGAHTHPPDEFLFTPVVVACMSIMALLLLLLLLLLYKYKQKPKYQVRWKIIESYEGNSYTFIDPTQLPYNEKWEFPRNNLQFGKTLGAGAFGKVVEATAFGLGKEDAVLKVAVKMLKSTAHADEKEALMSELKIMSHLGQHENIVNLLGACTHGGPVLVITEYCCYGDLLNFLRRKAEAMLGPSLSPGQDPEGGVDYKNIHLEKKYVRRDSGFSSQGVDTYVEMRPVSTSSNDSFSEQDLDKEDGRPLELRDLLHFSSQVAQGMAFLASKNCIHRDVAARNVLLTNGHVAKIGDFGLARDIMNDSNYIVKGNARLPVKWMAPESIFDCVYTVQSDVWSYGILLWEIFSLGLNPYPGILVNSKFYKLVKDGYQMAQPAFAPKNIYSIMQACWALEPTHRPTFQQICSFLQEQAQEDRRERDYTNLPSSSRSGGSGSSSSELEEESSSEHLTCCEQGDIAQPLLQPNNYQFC
# UniProt P53671: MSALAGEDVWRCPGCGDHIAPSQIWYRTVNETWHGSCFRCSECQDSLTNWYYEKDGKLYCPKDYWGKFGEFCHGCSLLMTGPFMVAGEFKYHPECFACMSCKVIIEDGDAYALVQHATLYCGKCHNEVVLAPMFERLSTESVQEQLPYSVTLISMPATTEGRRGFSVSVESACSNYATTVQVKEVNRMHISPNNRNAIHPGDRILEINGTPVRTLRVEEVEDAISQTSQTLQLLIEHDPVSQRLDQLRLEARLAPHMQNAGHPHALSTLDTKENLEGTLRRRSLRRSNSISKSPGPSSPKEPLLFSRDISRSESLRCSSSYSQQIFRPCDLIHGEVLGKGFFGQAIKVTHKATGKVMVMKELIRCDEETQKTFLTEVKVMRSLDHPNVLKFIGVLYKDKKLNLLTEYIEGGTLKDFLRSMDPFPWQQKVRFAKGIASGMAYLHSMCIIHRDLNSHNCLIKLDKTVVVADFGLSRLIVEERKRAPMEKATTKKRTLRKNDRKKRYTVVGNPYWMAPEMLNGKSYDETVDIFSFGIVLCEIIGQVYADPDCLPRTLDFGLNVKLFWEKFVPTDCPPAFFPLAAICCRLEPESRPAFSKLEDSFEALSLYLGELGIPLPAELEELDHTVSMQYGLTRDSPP
# UniProt O96013: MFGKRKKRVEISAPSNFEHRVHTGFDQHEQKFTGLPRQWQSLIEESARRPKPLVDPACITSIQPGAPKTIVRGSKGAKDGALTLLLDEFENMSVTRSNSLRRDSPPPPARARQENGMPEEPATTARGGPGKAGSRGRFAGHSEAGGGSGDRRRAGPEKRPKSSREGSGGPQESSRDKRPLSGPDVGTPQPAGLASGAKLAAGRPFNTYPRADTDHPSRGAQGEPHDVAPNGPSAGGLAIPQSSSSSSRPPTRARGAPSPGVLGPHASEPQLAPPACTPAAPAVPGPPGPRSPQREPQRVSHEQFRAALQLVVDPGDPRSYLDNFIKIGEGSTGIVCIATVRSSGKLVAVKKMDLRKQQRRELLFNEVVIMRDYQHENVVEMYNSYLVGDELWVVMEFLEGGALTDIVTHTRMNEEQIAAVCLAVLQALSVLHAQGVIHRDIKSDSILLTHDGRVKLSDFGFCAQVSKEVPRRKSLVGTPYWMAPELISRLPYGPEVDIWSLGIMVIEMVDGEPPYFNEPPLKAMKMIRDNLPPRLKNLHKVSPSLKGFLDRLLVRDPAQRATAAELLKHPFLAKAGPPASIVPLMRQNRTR
# UniProt Q08345: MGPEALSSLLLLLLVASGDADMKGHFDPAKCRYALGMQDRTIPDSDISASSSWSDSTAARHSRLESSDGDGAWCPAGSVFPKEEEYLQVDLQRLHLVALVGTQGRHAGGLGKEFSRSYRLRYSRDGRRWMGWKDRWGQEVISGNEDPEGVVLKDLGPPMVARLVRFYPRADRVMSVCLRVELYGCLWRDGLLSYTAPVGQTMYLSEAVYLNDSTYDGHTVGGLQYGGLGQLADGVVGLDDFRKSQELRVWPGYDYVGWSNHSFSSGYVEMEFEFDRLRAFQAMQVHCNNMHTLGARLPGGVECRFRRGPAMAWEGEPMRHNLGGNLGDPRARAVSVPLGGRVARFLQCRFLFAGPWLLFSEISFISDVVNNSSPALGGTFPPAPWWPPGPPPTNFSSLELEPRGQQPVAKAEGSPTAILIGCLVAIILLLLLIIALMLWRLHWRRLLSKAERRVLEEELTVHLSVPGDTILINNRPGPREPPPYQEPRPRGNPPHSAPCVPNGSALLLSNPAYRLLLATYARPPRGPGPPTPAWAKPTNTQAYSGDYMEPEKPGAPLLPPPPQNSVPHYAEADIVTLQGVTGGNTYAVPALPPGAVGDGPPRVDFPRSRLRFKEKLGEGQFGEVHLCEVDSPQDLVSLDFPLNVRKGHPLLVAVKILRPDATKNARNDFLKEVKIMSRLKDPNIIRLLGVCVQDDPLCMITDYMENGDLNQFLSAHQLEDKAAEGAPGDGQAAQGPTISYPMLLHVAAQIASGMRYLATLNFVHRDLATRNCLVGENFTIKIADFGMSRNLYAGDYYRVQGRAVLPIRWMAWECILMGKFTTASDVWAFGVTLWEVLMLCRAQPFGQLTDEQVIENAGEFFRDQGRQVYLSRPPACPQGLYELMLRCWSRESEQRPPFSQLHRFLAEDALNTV
# UniProt P53350, whole entry: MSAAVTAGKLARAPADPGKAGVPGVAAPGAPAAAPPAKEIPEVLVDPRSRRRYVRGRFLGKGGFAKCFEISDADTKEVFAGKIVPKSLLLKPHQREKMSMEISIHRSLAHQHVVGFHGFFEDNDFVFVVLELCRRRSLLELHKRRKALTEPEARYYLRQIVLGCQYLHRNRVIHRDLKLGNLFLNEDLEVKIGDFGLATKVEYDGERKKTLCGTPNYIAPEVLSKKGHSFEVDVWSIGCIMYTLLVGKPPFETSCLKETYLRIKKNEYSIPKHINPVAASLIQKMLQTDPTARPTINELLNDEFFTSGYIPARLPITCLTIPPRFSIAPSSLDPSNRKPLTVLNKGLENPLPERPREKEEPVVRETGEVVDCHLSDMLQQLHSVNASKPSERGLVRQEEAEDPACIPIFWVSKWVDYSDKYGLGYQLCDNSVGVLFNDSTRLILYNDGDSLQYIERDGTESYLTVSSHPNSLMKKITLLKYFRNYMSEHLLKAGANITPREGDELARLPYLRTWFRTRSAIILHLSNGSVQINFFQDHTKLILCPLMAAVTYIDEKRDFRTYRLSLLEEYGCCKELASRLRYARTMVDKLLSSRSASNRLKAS
# UniProt P22607, whole entry, looked up: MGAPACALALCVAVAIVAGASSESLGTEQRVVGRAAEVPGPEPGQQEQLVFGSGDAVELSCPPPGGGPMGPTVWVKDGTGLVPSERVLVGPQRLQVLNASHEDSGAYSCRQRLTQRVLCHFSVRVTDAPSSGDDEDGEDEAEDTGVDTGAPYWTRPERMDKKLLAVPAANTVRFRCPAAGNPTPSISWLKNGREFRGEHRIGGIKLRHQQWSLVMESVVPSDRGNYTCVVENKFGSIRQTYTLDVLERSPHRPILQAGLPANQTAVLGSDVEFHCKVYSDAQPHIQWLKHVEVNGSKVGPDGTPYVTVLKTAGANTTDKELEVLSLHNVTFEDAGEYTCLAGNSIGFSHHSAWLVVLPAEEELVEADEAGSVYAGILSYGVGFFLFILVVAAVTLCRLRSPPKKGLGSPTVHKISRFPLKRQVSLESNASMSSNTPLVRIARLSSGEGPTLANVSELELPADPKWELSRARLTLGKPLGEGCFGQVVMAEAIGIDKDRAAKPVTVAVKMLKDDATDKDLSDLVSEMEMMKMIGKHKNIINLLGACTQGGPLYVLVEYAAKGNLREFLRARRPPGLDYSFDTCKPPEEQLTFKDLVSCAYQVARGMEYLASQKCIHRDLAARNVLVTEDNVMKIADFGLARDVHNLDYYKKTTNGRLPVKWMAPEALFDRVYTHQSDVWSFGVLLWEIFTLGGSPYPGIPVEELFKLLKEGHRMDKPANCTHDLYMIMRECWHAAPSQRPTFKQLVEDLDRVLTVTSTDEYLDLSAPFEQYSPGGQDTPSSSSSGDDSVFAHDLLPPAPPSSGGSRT
# UniProt Q00535, whole entry, looked up: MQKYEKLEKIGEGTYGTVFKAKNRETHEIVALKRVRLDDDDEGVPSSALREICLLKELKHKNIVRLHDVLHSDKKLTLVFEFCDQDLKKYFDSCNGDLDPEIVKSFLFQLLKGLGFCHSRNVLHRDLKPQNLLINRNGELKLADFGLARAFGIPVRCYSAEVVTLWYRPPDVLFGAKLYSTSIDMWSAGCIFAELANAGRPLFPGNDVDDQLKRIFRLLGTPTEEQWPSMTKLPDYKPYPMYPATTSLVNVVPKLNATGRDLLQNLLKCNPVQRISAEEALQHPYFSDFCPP
# UniProt P07948: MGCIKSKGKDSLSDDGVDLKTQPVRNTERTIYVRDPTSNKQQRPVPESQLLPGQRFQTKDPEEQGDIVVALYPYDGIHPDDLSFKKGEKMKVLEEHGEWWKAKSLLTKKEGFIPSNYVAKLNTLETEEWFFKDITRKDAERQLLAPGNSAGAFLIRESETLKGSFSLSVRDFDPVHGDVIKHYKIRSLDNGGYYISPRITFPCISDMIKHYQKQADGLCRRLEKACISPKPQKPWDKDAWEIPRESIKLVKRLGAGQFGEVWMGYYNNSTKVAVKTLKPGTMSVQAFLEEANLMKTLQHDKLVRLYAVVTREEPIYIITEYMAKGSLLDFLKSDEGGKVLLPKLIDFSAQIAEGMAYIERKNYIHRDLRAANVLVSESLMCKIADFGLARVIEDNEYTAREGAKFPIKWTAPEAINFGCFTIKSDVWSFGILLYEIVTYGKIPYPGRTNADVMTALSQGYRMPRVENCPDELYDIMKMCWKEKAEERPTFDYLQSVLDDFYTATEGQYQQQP
# This is one part of the list. The calls rarely recur for the same compound in another form.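 Kinases were expressed as nanoluciferase fusions in K562 cells and luminescence was read every 4 h between 2 and 18 h as percent of control, DMSO set to 100% and a positive control to 0%. A time point counts as decreased when the signal drops significantly (2 sigma). The hit call is the authors' own, does not follow from the count of time points alone, and its rule is not shown.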
# Key:
# Experiment in all cases: number of time points (of 5) at which kinase-Nluc abundance scored as decreased, DMSO-normalised (count); higher = more persistent destabilization
# [1] = compound: N#CC(=Cc1cc(Cl)cc(Cl)c1)c1cccnc1; conditions: 10 µM; K562; 2-18 h
# [2] = compound: NC(=O)c1c(OCc2c(F)cc(Br)cc2F)nsc1NC(=O)NCCCCN1CCCC1; conditions: 2.5 µM; K562; 2-18 h
# Capivasertib = compound: NC1(C(=O)N[C@@H](CCO)c2ccc(Cl)cc2)CCN(c2nc[nH]c3nccc2-3)CC1 [Capivasertib]; conditions: 10 µM; K562; 2-18 h
# Syk Inhibitor II = compound: NCCNc1ncc(C(N)=O)c(Nc2cccc(C(F)(F)F)c2)n1 [Syk Inhibitor II]; conditions: 10 µM; K562; 2-18 h
# [3] = compound: Nc1nc(Nc2ccc(S(N)(=O)=O)cc2)nn1C(=O)c1c(F)cccc1F; conditions: 2.5 µM; K562; 2-18 h
# Miransertib = compound: Nc1ncccc1-c1nc2ccc(-c3ccccc3)nc2n1-c1ccc(C2(N)CCC2)cc1 [Miransertib]; conditions: 10 µM; K562; 2-18 h
# [4] = compound: Nc1ncnc2c1c(-c1cnc3[nH]ccc3c1)nn2C1CCCC1; conditions: 2.5 µM; K562; 2-18 h
# [5] = compound: Nc1ncnc2n[nH]c(-c3ccc(Oc4ccccc4)cc3)c12 [Ibrutinib deacryloylpiperidine]; conditions: 10 µM; K562; 2-18 h
# [6] = compound: O=C(NCCCNc1nc(Nc2cccc(CN3CCOCC3)c2)ncc1C1CC1)C1CCC1; conditions: 10 µM; K562; 2-18 h
Target,number of time points [1],number of time points [2],number of time points (Capivasertib),number of time points (Syk Inhibitor II),number of time points [3],number of time points (Miransertib),number of time points [4],number of time points [5],number of time points [6]
MAP2K1 (UniProt Q02750),0,0,0,0,0,0,0,0,0
CDK6 (UniProt Q00534),0,0,0,0,1,0,0,0,0
CAMK2G (UniProt Q13555),0,0,0,0,0,0,1,0,0
CSNK1D (UniProt P48730),0,0,0,0,0,1,0,0,0
RAF1 (UniProt P04049),0,0,0,0,0,1,3,0,2
EPHA2 (UniProt P29317),0,0,0,0,0,0,0,0,0
CSNK1A1 (UniProt P48729),0,0,0,0,0,0,0,0,0
MAPK4 (UniProt P31152),0,0,0,0,0,0,0,0,0
MAP4K2 (UniProt Q12851),0,0,0,0,0,0,0,0,0
CSF1R (UniProt P07333),0,0,0,0,0,0,0,0,–
LIMK2 (UniProt P53671),0,0,0,0,0,2,3,0,0
CHEK2 (UniProt O96017),1,0,0,0,0,1,0,0,0
PAK4 (UniProt O96013),0,0,0,0,0,0,0,0,0
FGFR2 (UniProt P21802),0,0,0,0,0,2,3,0,0
DDR1 (UniProt Q08345),0,0,0,0,0,1,4,1,3
PLK1 (UniProt P53350),0,0,0,0,0,1,3,0,0
GSK3A (UniProt P49840),0,0,0,0,0,0,0,0,0
FGFR3 (UniProt P22607),0,0,0,0,0,0,0,0,0
CDK5 (UniProt Q00535),0,0,0,0,0,0,0,0,0
LYN (UniProt P07948),0,0,0,0,3,1,0,0,–
CDK2 (UniProt P24941),0,0,0,0,1,0,0,0,0

# Retrieved one by one from above:
Target,number of time points [1],number of time points [2],number of time points (Capivasertib),number of time points (Syk Inhibitor II),number of time points [3],number of time points (Miransertib),number of time points [4],number of time points [5],number of time points [6]
CAMK2G (UniProt Q13555),0,0,0,0,0,0,1,0,0
PLK1 (UniProt P53350),0,0,0,0,0,1,3,0,0
